Results taken from publication PMC7755605.
No constants are given. Whether binding was seen depends on the method and setting. Binding seen in cells or lysates may run through a third protein. Some entries that bind do so weakly or less than the wild type. For part of these data: Where a sequence is shown, tags or fusion partners need not be part of it. Each block holds one binder with its values, some of them ahead of it.

Sequences of proteins named here, by UniProt entry; tags and fusion partners are left off. Residues count along the entry.
UniProt P97546, residues 29-393: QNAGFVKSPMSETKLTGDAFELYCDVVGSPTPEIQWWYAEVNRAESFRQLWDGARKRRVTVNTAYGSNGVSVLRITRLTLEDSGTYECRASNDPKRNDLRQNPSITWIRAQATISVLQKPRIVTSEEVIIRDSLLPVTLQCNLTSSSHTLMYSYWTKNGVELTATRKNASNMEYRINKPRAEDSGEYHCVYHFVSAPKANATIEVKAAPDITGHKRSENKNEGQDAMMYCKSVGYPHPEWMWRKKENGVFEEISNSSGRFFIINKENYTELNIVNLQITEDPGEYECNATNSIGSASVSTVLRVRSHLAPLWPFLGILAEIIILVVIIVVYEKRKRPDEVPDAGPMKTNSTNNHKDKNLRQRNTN
UniProt P97300, residues 29-397: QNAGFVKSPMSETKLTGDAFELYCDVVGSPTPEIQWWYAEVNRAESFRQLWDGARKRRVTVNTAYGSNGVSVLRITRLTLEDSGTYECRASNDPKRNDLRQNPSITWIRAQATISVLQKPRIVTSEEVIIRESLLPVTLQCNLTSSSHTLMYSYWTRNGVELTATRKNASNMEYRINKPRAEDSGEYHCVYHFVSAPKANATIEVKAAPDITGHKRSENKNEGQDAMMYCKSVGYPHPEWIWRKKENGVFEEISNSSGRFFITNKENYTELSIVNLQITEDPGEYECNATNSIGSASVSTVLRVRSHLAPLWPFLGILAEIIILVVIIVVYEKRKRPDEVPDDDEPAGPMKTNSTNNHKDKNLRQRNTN

Assays:
[1] = molecular target: neuroplastin isoforms, endogenous in rat forebrain (rat (endogenous in forebrain)) (UniProt P97546); assay: co-IP; RIPA homogenates of forebrain (3 weeks-old rats) or hippocampus (2 weeks-old Nptn+/+ and Nptn-/- mice); rabbit anti-neuroplastin antibody overnight, Protein G Sepharose; pre-immune IgG as control; blot with anti-TRAF6
[2] = molecular target: neuroplastin isoforms, endogenous in mouse hippocampus (mouse (endogenous in hippocampus)) (UniProt P97300); assay: as above
[3] = molecular target: GFP-tagged neuroplastin 65 without the DDEP insert (UniProt P97546); assay: co-IP; HEK cells co-transfected for 24 h with GFP-tagged neuroplastin constructs and Flag-TRAF6; RIPA lysate; anti-GFP magnetic beads (uMACS), 4 h at 4 C; blot with anti-Flag and anti-GFP

binding [1]: binds
B1: TRAF6, endogenous in rat forebrain (protein, UniProt B5DF45 1-530)
chain: MSLLNCENSCASSQSSSDCCAAMANSCSAAMKDDSVSGCVSTGNLSSSFMEEIQGYDVEFDPPLESKYECPICLMALREAVQTPCGHRFCKACITKSIRDAGHKCPVDNEILLENQLFPDNFAKREILSLTVKCPNKGCVQKMELRHLEDHQVHCEFALVICPQCQRFFQKCQINKHIIEDCPRRQVSCVNCAVPMPYEEKEIHDQSCPLANIICEYCGTILIREQMPNHYDLDCPTAPVPCTFSVFGCHEKMQRNHLARHLQENTQLHMRLLAQAVHNVNLSLRPCDASSPSRGCRPEDPNYEETVKQLEGRLVRQDHQIRELTAKMETQSMHVSELKRTIRSLEDKVAEMEAQQCNGIYIWKIGNFGMHLKSQEEERPVVIHSPGFYTGRPGYKLCMRLHLQLPTAQRCANYISLFVHTMQGEYDSHLPWPFQGTIRLTILDQSEAVIRQNHEEVMDAKPELLAFQRPTIPRNPKGFGYVTFMHLEALRQGTFIKDDTLLVRCEVSTRFDMGGLRKEGFQPRSTDAGV

binding [2]: binds
B2: TRAF6, endogenous in mouse hippocampus (protein, UniProt P70196 1-530)
chain: MSLLNCENSCGSSQSSSDCCAAMAASCSAAVKDDSVSGSASTGNLSSSFMEEIQGYDVEFDPPLESKYECPICLMALREAVQTPCGHRFCKACIIKSIRDAGHKCPVDNEILLENQLFPDNFAKREILSLTVKCPNKGCLQKMELRHLEDHQVHCEFALVNCPQCQRPFQKCQVNTHIIEDCPRRQVSCVNCAVSMAYEEKEIHDQSCPLANIICEYCGTILIREQMPNHYDLDCPTAPIPCTFSVFGCHEKMQRNHLARHLQENTQLHMRLLAQAVHNVNLALRPCDAASPSRGCRPEDPNYEETIKQLESRLVRQDHQIRELTAKMETQSMYVGELKRTIRTLEDKVAEMEAQQCNGIYIWKIGNFGMHLKSQEEERPVVIHSPGFYTGRPGYKLCMRLHLQLPTAQRCANYISLFVHTMQGEYDSHLPWPFQGTIRLTILDQSEALIRQNHEEVMDAKPELLAFQRPTIPRNPKGFGYVTFMHLEALRQGTFIKDDTLLVRCEVSTRFDMGGLRKEGFQPRSTDAGV

binding [3]: binds
B3: mouse N-terminal Flag-tagged TRAF6 (protein, UniProt P70196 1-530)
chain: B2 chain
